Values from PubChem BioAssay AID1508597 (Cure First, 2020).
Assay: 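Survival screen with siRNA in ovarian cancer cells derived from patients, with or without rucaparib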 (primary screen). Cell system: human ovarian carcinoma lines grown from tumours: OCI-P5x (papillary serous) and OCI-C5x (clear cell). Reagent: siRNA pool against human genes, 1.25 pmol siRNA per well. Duration: 72 h or 96 h, depending on the cell culture. Conditions: rucaparib 20 µM (about IC30) or vehicle, present until read-out. Rucaparib or vehicle: Vehicle. Cell line: OCI-C5x (clear cell). Measured: 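ATP luminescence measured at 72 or 96 h according to the culture, then normalised and expressed as percent viability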. Direction: viability, normalised: higher = more viable cells remaining. Hit rule: 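a well counts as a hit if its normalised viability is under 80 percent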. Calls: active = viability under 80%; inactive = viability 80% or more.
This is a random part of the about 2,100 reagents, in one setting of the screen. 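Calls flag viability under 80% in either arm, not effects specific to rucaparib; the reference for percent is not stated.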 Unmarked entries are inactive. Some reagents were tested in more than one well and are listed for each. Not given: the 100% reference.

For WIZ, technical replicate 1 the deposit lists viability, normalised (%) = 53.7 (active).
WIZ, technical replicate 2 showed viability, normalised (%) = 70.3 (active).
For WIZ, technical replicate 3, the entry reads viability, normalised (%) = 57.9 (active).
HSD17B4, technical replicate 1 scored viability, normalised (%) = 74.9 (active).
HSD17B4, technical replicate 2 scored viability, normalised (%) = 60.2 (active).
With HSD17B4, technical replicate 3, the values are viability, normalised (%) = 73 (active).
WDR77, technical replicate 1 gave viability, normalised (%) = 28.3 (active).
With WDR77, technical replicate 2, the values are viability, normalised (%) = 42.6 (active).
For WDR77, technical replicate 3, the values are viability, normalised (%) = 37.9 (active).
TJP1, technical replicate 1 showed viability, normalised (%) = 96.3.
TJP1, technical replicate 2 showed viability, normalised (%) = 57.8 (active).
TJP1, technical replicate 3 showed viability, normalised (%) = 58.8 (active).
SPO11, technical replicate 1 gave viability, normalised (%) = 46.8 (active).
For SPO11, technical replicate 2, the entry reads viability, normalised (%) = 67.6 (active).
For SPO11, technical replicate 3, the values are viability, normalised (%) = 51.1 (active).
NME7, technical replicate 1 gave viability, normalised (%) = 54.3 (active).
For NME7, technical replicate 1 the deposit lists viability, normalised (%) = 47.6 (active).
With NME7, technical replicate 2 the deposit lists viability, normalised (%) = 53 (active).
NME7, technical replicate 2 showed viability, normalised (%) = 61.6 (active).
NME7, technical replicate 3 scored viability, normalised (%) = 50 (active).
NME7, technical replicate 3 gave viability, normalised (%) = 66.1 (active).
With PARP4, technical replicate 1, the values are viability, normalised (%) = 41.1 (active).
For PARP4, technical replicate 1, the values are viability, normalised (%) = 66.7 (active).
PARP4, technical replicate 2 scored viability, normalised (%) = 40.4 (active).
With PARP4, technical replicate 2, the values are viability, normalised (%) = 56.2 (active).
For PARP4, technical replicate 3, the entry reads viability, normalised (%) = 56.4 (active).
PARP4, technical replicate 3 scored viability, normalised (%) = 35.4 (active).
For WDR45B, technical replicate 1, the entry reads viability, normalised (%) = 68.3 (active).
With WDR45B, technical replicate 2, the entry reads viability, normalised (%) = 54.9 (active).
With WDR45B, technical replicate 3, the values are viability, normalised (%) = 57 (active).
With DGKZ, technical replicate 1, the entry reads viability, normalised (%) = 68.2 (active).
DGKZ, technical replicate 2 showed viability, normalised (%) = 69.9 (active).
DGKZ, technical replicate 3 scored viability, normalised (%) = 48.3 (active).

2 neighbouring records from above, for reference:
DGKZ, technical replicate 2: viability, normalised (%) = 69.9 (active)
DGKZ, technical replicate 3: viability, normalised (%) = 48.3 (active)
